Taken from: PubChem BioAssay AID1259254 (NCATS, 2017)

- Assay: 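Genome-wide screen for genes that prevent DNA re-replication in cancer cells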 (primary screen)
- Cells: human HCT116 colorectal cancer cells
- Reagent: single siRNA against human genes
- Timing: 3 days
- Read-out: 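Imaged Hoechst DNA stain sorts each cell into a cycle phase by DNA amount; per plate, G2 fraction set to 0% for non-targeting and 100% for GMNN siRNA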
- Reading the numbers: G2 robust z-score: higher = more G2 cells, more excess DNA replication
- Active means: 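Active siRNAs have a G2 robust z of 5 or more median absolute deviations over the median, which in these data means about 38% or higher of GMNN control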
The whole screen tested about 59,000 reagents; shown is a random part of them. About 1,550 of all reagents (2.6%) count as active. 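G2 share is only a proxy for re-replication; each gene was hit by three separate siRNAs, and active genes were retested.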 The numbers tell different reagents against one gene apart. Not all columns of the deposit are shown. Not stated in the record: the amount of reagent.

Gene | siRNA no. | G2 robust z-score | Outcome
FGD2 | 1 | 4.65 | inactive
FGD2 | 2 | -0.832 | inactive
FGD2 | 3 | 0.556 | inactive
MTERF4 | 1 | -0.302 | inactive
MTERF4 | 2 | 0.0415 | inactive
MTERF4 | 3 | -0.125 | inactive
CST2 | 1 | 2.25 | inactive
CST2 | 2 | -0.771 | inactive
CST2 | 3 | -0.91 | inactive
HACD3 | 1 | -1.44 | inactive
HACD3 | 2 | -0.521 | inactive
HACD3 | 3 | 1.29 | inactive
NOTCH1 | 1 | -0.159 | inactive
NOTCH1 | 2 | -0.313 | inactive
NOTCH1 | 3 | -1.04 | inactive
HNF4A | 1 | -0.359 | inactive
HNF4A | 2 | 10.5 | active
HNF4A | 3 | -0.135 | inactive
GZMA | 1 | -0.423 | inactive
GZMA | 2 | 9.27 | active
GZMA | 3 | -0.17 | inactive
NEK1 | 1 | -0.446 | inactive
NEK1 | 2 | -0.169 | inactive
NEK1 | 3 | -0.833 | inactive
SEPTIN1 | 1 | -0.418 | inactive
SEPTIN1 | 2 | -1.07 | inactive
SEPTIN1 | 3 | -0.931 | inactive
DEPDC4 | 1 | 1.4 | inactive
DEPDC4 | 2 | -1.02 | inactive
DEPDC4 | 3 | 0.386 | inactive
MEDAG | 1 | 0.00365 | inactive
MEDAG | 2 | -1.2 | inactive
MEDAG | 3 | 0.965 | inactive
TLE4 | 1 | 3.8 | inactive
TLE4 | 2 | 0.632 | inactive
TLE4 | 3 | -0.683 | inactive
KIF22 | 1 | 3.13 | inactive
KIF22 | 2 | -1.1 | inactive
KIF22 | 3 | 0.0562 | inactive
C3orf36 | 1 | -0.673 | inactive
C3orf36 | 2 | -0.596 | inactive
C3orf36 | 3 | 0.747 | inactive
ZFAND2B | 1 | 1.57 | inactive
ZFAND2B | 2 | -0.426 | inactive
ZFAND2B | 3 | 1.66 | inactive
USH2A | 1 | 3.08 | inactive
USH2A | 2 | 0.1 | inactive
USH2A | 3 | -0.364 | inactive
TCEA1 | 1 | -0.544 | inactive
TCEA1 | 2 | 0.615 | inactive
TCEA1 | 3 | 0.0224 | inactive
HRH2 | 1 | -0.478 | inactive
HRH2 | 2 | -0.297 | inactive
HRH2 | 3 | -0.0986 | inactive
RNF11 | 1 | 4.48 | inactive
RNF11 | 2 | -0.677 | inactive
RNF11 | 3 | 1.15 | inactive
EFS | 1 | 4.43 | inactive
EFS | 2 | -0.297 | inactive
EFS | 3 | -1.36 | inactive
SBK2 | 1 | -0.866 | inactive
SBK2 | 2 | -0.234 | inactive
SBK2 | 3 | -0.257 | inactive
ZBTB16 | 1 | 0.836 | inactive
ZBTB16 | 2 | -1.56 | inactive
ZBTB16 | 3 | -0.274 | inactive
KIF16B | 1 | -0.252 | inactive
KIF16B | 2 | -0.323 | inactive
KIF16B | 3 | 0.318 | inactive

Laid out differently: 3 of the entries above.
| Gene | siRNA no. | G2 robust z-score | Outcome |
| --- | --- | --- | --- |
| ZFAND2B | 3 | 1.66 | inactive |
| USH2A | 1 | 3.08 | inactive |
| USH2A | 2 | 0.1 | inactive |
